{"source": "PubChem BioAssay AID1053208 (Peter MacCallum Cancer Centre, 2014)", "purpose": "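Synthetic lethal interactions between gene loss and doxorubicin in osteosarcoma cells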 (primary screen)", "cells": "mouse osteosarcoma cells, early-passage culture from an engineered mouse model of fibroblastic bone tumour", "knock-down reagent": "siRNA pool against mouse genes, 40 nM", "time to read-out": "about 120 h (48 h before drug, then 72 h with drug)", "conditions": "doxorubicin 100 nM for 72 h, roughly 30-40% inhibitory dose", "measurement": "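Luminescent ATP signal taken as viability with or without 100 nM doxorubicin for 72 h; mean of two wells set against non-targeting siRNA and turned into robust z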", "scale": "viability z-score with doxorubicin: higher = more viable cells under doxorubicin; viability z-score without drug: higher = more viable cells with knock-down alone", "rule for the call": "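Called active if knock-down leaves viability unchanged without drug (z within -2 to 2) but lowers it with doxorubicin (z at or under -2)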", "note": "Here is one part, drawn at random, of about 17,000 reagents. 788 of them (4.7%) count as active. 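Calls rest on z-score classes alone; an extra cut-off of viability at most 70% of control was not applied to them.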 Further read-outs or replicates are left out here."}
{"gene knocked down":"Nid2","combined z-score class":"no change with or without drug","viability z-score with doxorubicin":0.9,"viability z-score without drug":-0.34,"call":"inactive"}
{"gene knocked down":"Tcf7l2","combined z-score class":"high cell count without drug only","viability z-score with doxorubicin":0.9,"viability z-score without drug":3.04,"call":"inactive"}
{"gene knocked down":"Cmtm1","combined z-score class":"no change with or without drug","viability z-score with doxorubicin":-1.35,"viability z-score without drug":-0.17,"call":"inactive"}
{"gene knocked down":"Tchhl1","combined z-score class":"no change with or without drug","viability z-score with doxorubicin":0.9,"viability z-score without drug":1.52,"call":"inactive"}
{"gene knocked down":"Pdss1","combined z-score class":"no change with or without drug","viability z-score with doxorubicin":1.57,"viability z-score without drug":0.51,"call":"inactive"}
{"gene knocked down":"Oog3","combined z-score class":"no change with or without drug","viability z-score with doxorubicin":0.22,"viability z-score without drug":0.84,"call":"inactive"}
{"gene knocked down":"Eda2r","combined z-score class":"no change with or without drug","viability z-score with doxorubicin":-0.67,"viability z-score without drug":0.51,"call":"inactive"}
{"gene knocked down":"C1qc","combined z-score class":"no change with or without drug","viability z-score with doxorubicin":-0.45,"viability z-score without drug":-1.52,"call":"inactive"}
{"gene knocked down":"Tnfsf9","combined z-score class":"no change with or without drug","viability z-score with doxorubicin":-0.45,"viability z-score without drug":0.17,"call":"inactive"}
{"gene knocked down":"Tafa2","combined z-score class":"high cell count without drug only","viability z-score with doxorubicin":-0.56,"viability z-score without drug":2.02,"call":"inactive"}
{"gene knocked down":"1700123K08Rik","combined z-score class":"low cell count with doxorubicin only","viability z-score with doxorubicin":-2.02,"viability z-score without drug":0,"call":"active"}
{"gene knocked down":"Bicd2","combined z-score class":"no change with or without drug","viability z-score with doxorubicin":1.12,"viability z-score without drug":0.84,"call":"inactive"}
{"gene knocked down":"Nlgn1","combined z-score class":"no change with or without drug","viability z-score with doxorubicin":0.45,"viability z-score without drug":0.84,"call":"inactive"}
{"gene knocked down":"Procr","combined z-score class":"no change with or without drug","viability z-score with doxorubicin":0.67,"viability z-score without drug":-0.51,"call":"inactive"}
{"gene knocked down":"Tceal1","combined z-score class":"no change with or without drug","viability z-score with doxorubicin":1.12,"viability z-score without drug":0.17,"call":"inactive"}
{"gene knocked down":"Arhgef2","combined z-score class":"no change with or without drug","viability z-score with doxorubicin":-0.45,"viability z-score without drug":0.84,"call":"inactive"}
{"gene knocked down":"Grsf1","combined z-score class":"no change with or without drug","viability z-score with doxorubicin":-0.11,"viability z-score without drug":0.51,"call":"inactive"}
{"gene knocked down":"Myod1","combined z-score class":"no change with or without drug","viability z-score with doxorubicin":0,"viability z-score without drug":-0.17,"call":"inactive"}
{"gene knocked down":"Lin7b","combined z-score class":"no change with or without drug","viability z-score with doxorubicin":-1.57,"viability z-score without drug":-1.69,"call":"inactive"}
{"gene knocked down":"Thap1","combined z-score class":"high cell count with doxorubicin only","viability z-score with doxorubicin":3.71,"viability z-score without drug":1.52,"call":"inactive"}
{"gene knocked down":"5930431H10","combined z-score class":"no change with or without drug","viability z-score with doxorubicin":0,"viability z-score without drug":0.17,"call":"inactive"}
{"gene knocked down":"B3galnt2","combined z-score class":"no change with or without drug","viability z-score with doxorubicin":-0.22,"viability z-score without drug":-0.34,"call":"inactive"}
{"gene knocked down":"Mon1b","combined z-score class":"no change with or without drug","viability z-score with doxorubicin":-0.67,"viability z-score without drug":0.17,"call":"inactive"}
{"gene knocked down":"Gp6","combined z-score class":"no change with or without drug","viability z-score with doxorubicin":0.45,"viability z-score without drug":1.18,"call":"inactive"}
{"gene knocked down":"Flywch1","combined z-score class":"no change with or without drug","viability z-score with doxorubicin":-0.45,"viability z-score without drug":0.67,"call":"inactive"}
{"gene knocked down":"Gldc","combined z-score class":"no change with or without drug","viability z-score with doxorubicin":0.11,"viability z-score without drug":0.67,"call":"inactive"}
{"gene knocked down":"Lmf1","combined z-score class":"no change with or without drug","viability z-score with doxorubicin":-0.67,"viability z-score without drug":1.18,"call":"inactive"}
{"gene knocked down":"Cops4","combined z-score class":"no change with or without drug","viability z-score with doxorubicin":-1.46,"viability z-score without drug":-0.17,"call":"inactive"}
{"gene knocked down":"Plekhs1","combined z-score class":"low cell count with doxorubicin only","viability z-score with doxorubicin":-2.81,"viability z-score without drug":0.51,"call":"active"}
{"gene knocked down":"Mphosph8","combined z-score class":"high cell count without drug only","viability z-score with doxorubicin":0.9,"viability z-score without drug":3.54,"call":"inactive"}
{"gene knocked down":"Abhd10","combined z-score class":"no change with or without drug","viability z-score with doxorubicin":-1.46,"viability z-score without drug":-0.17,"call":"inactive"}
{"gene knocked down":"Trpv4","combined z-score class":"no change with or without drug","viability z-score with doxorubicin":0.67,"viability z-score without drug":1.52,"call":"inactive"}
{"gene knocked down":"Sned1","combined z-score class":"high cell count with doxorubicin only","viability z-score with doxorubicin":2.14,"viability z-score without drug":0.84,"call":"inactive"}
{"gene knocked down":"Bbx","combined z-score class":"no change with or without drug","viability z-score with doxorubicin":-0.45,"viability z-score without drug":-0.51,"call":"inactive"}
{"gene knocked down":"Amhr2","combined z-score class":"no change with or without drug","viability z-score with doxorubicin":1.46,"viability z-score without drug":-0.67,"call":"inactive"}
{"gene knocked down":"Lsg1","combined z-score class":"low cell count without drug only","viability z-score with doxorubicin":-0.9,"viability z-score without drug":-2.02,"call":"inactive"}
